Laboratory results taken from PubChem BioAssay AID2685 (National Center for Advancing Translational Sciences (NCATS), 2010).
This is one part of the list. These are further read-outs of the screen, such as a control signal, another cell line or another target. No call is given for them. The list favours compounds with an active or inconclusive main result. Words in brackets tell the shape of the fitted curve; partial curves, single points and poor fits give uncertain potencies.

Assay: qHTS Assay for Lipid Storage Modulators in Drosophila S3 Cells;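 for cell number change: cells counted by Cell Tracker Red CMTPX staining in the red channel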
Conditions: BODIPY lipid droplet fluorescence, 18-24 h; for cell number change: measured here: cell count max response, cells fed with added oleic acid
Outline: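 Laser-scanning cytometry quantifies lipid droplet accumulation (500–530 nm total intensity; droplet/cell object ratio) in oleic acid-fed (400 uM added) Drosophila S3 cells treated with a concentration series. 20 uM Triacsin C defined 100% inhibition.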

[1] = measured here: cell number channel AC50, cells fed with added oleic acid
[2] = measured here: lipid fluorescence (Fed channel) AC50, cells fed with added oleic acid

| Structure (SMILES) | cell number change [%] | AC50 [1] | AC50 [2] |
| --- | --- | --- | --- |
| N#Cc1cc2c(nc1SCC(=O)Nc1ccc(Cl)cc1)C1CCN2CC1 | 5.39 | 326 nM [rising, full curve] |  |
| C=C1C(=O)O[C@@H]2C[C@@H](C)[C@H]3C=CC(=O)[C@]3(O)C[C@@H]12 | -34.6 | 1030 nM [falling, full curve, poor fit] |  |
| Cc1cccc(CCNCc2cc3cccc(C)c3[nH]c2=O)c1 |  | 2310 nM [falling, partial curve] | 9.2 nM [falling, full curve, poor fit] |
| O=c1[nH]c(=S)n(-c2ccccc2)c(O)c1C=NCCN1CCNCC1 |  | 651 nM [falling, single point] |  |
| CCOC(=O)C(O)(c1ccc(N(CC)S(=O)(=O)c2ccc(C)cc2)cc1)C(F)(F)F (stereo unspecified) | -74.5 | 231 nM [falling, full curve] | 184 nM [falling, full curve] |
| COc1cccc(CNCCc2cccc(F)c2)c1OC | 27.4 |  | 29100 nM [rising, single point] |
| N#Cc1ccc(N2CCNCC2)c(F)c1 | 10.1 |  | 51.7 nM [falling, full curve] |
| COP(=O)(C#Cc1ccccc1)C(O)c1ccc(Br)cc1 (stereo unspecified) | -0.0168 | 146 nM [rising, full curve, poor fit] | 7310 nM [rising, partial curve] |
| c1cncc(CNC2CCCCC2)c1 | -20.9 |  |  |
| O=C1Nc2cc(C(=O)N3CCC4(CC3)OCCO4)ccc2S/C1=C\c1ccccc1 | -26.4 | 5.8 nM [falling, full curve, poor fit] | 1460 nM [falling, full curve, poor fit] |
| O=[N+]([O-])c1cc([As](=O)(O)O)ccc1O | -19.6 |  | 10300 nM [falling, partial curve] |
| CCCCSP1(=S)NCCCO1 (stereo unspecified) | -30.5 | 146 nM [falling, full curve, poor fit] |  |
| COc1ccc(-c2[nH]ncc2CNC(C)Cc2ccsc2)c(F)c1 (stereo unspecified) | 15.2 |  | 25900 nM [rising, single point] |
| CCN1CC2(COC(=O)c3ccccc3N)CCC(OC)C34C5CC6C(OC)CC(O)(C5C6OC)C(O)(C(OC)C23)C14 (stereo unspecified) | -5.27 |  | 29100 nM [rising, single point] |
| C=CCn1c(O)c(C(C)=NCCCN(C)C)c(=O)[nH]c1=O | 10.3 |  | 6510 nM [falling, single point] |
| CCCCCCN=C(C)c1c(O)n(Cc2ccccc2)c(=O)[nH]c1=O | 17.8 | 2060 nM [falling, partial curve, poor fit] |  |
| CNc1ccc2oc(C[C@H]3O[C@@]4(CC[C@H]3C)O[C@H]([C@H](C)C(=O)c3ccc[nH]3)[C@H](C)C[C@H]4C)nc2c1C(=O)O | -72.6 | 259 nM [falling, full curve] | 231 nM [falling, full curve] |
| COc1ccc(C2=NCc3nnc(C)n3-c3ccc(Cl)cc32)cc1Cl | -39 | 32600 nM [falling, partial curve, poor fit] |  |
| CN1CCCN(C(=O)COc2ccc(F)cc2Cl)CC1 | 4.65 |  | 5.8 nM [rising, full curve, poor fit] |
| CCC(=O)c1c(O)n(C2CCCCCC2)c(=O)[nH]c1=O | -21.2 |  | 820 nM [falling, single point] |

| Structure (SMILES) | cell number change [%] | AC50 [1] | AC50 [2] |
| --- | --- | --- | --- |
| C=CCN1C(=O)/C(=C/c2cc(C)n(-c3ccccn3)c2C)C(=O)NC1=S | -13.1 |  |  |
| Cc1ccc(C[n+]2c(-c3ccc(C)cc3)cc(-c3ccc(C)cc3)cc2-c2ccc(C)cc2)cc1 | -89 | 5170 nM [falling, partial curve] | 411 nM [falling, full curve] |
| COc1ccc(CN2CCN(c3ccccc3F)CC2)c(OC)c1 | 1.95 |  | 5170 nM [falling, single point] |
| CC(C)C(=O)N1CCN(CCN=Cc2c(O)n(C)c(=O)n(C)c2=O)CC1 | -19.6 |  | 5170 nM [rising, single point] |
| Cc1ccc(C(=O)O)cc1N=Nc1c(O)[nH]c(=O)[nH]c1=O | -20.2 |  | 116 nM [falling, full curve] |
| CCCCn1c(O)c(C=NC2CC3CCC2(C)C3(C)C)c(=O)[nH]c1=O (stereo unspecified) | -33 | 18400 nM [falling, single point] |  |
| CN(C)C(=O)Oc1ccc(Br)c2ccccc12 | -3.28 |  | 116 nM [falling, full curve, poor fit] |
| O=C(c1cc2ccccn2n1)N1CCC2(CC1)OCCO2 | -0.774 |  | 731 nM [rising, partial curve] |
| CCOC(=O)c1c(C)[nH]c(C)c1C(=O)C(Cc1ccccc1)N(C)C (stereo unspecified) | 23.9 |  | 2060 nM [rising, full curve] |
| Fc1ccccc1CNCCc1ccc2c(c1)OCO2 | 9.52 |  |  |
| CCNC(=S)NCCC1=c2ccccc2=N/C1=C\c1c(O)n(C)c(=O)n(C)c1=O | -16.2 |  | 29100 nM [falling, single point] |
| CCCCCn1c(=O)c(C(=O)Nc2nc(CC(=O)OCC)cs2)c(O)c2ccccc21 | -23.2 | 5.8 nM [falling, full curve, poor fit] |  |
| COc1ccc(OC)c([C@@H](O)[C@H](C)NC(C)(C)C)c1 | -22.5 |  | 29100 nM [falling, single point] |
| C=CCn1c(O)c(C=Nc2c(C)n(C)n(-c3ccccc3)c2=O)c(=O)[nH]c1=O |  |  | 6510 nM [rising, single point] |
| Cc1cccc(NC(=O)COC(=O)c2cc(C)n(C3CC3)c2C)c1 |  |  | 4110 nM [rising, single point] |
| O=[N+]([O-])c1cc(-n2cnnn2)c(O)c([N+](=O)[O-])c1 | 16.9 |  |  |
| Cn1c(O)c(C=NCc2ccco2)c(=O)n(C)c1=O |  | 6510 nM [falling, single point] | 2590 nM [falling, partial curve] |
| Cc1cc(NC(=O)COC(=O)c2c(C)nn(Cc3ccccc3Cl)c2C)no1 |  | 92 nM [rising, full curve, poor fit] | 82 nM [rising, full curve, poor fit] |
| COc1cc(CC2C(=O)N(C)C(=O)N(C)C2=O)ccc1OCc1ccccc1 | -13 |  | 32600 nM [falling, single point] |
| C/C(=N\NC(=O)c1ccccc1Cl)c1c(O)n(C2CCCCC2)c(=O)[nH]c1=O | -1.91 | 3260 nM [falling, single point] | 3660 nM [falling, partial curve] |

Sorted by molar mass (rising): 3 of the compounds above

| Structure (SMILES) | cell number change [%] | AC50 [1] | AC50 [2] |
| --- | --- | --- | --- |
| Cn1c(O)c(C=NCc2ccco2)c(=O)n(C)c1=O |  | 6510 nM [falling, single point] | 2590 nM [falling, partial curve] |
| Fc1ccccc1CNCCc1ccc2c(c1)OCO2 | 9.52 |  |  |
| CCOC(=O)c1c(C)[nH]c(C)c1C(=O)C(Cc1ccccc1)N(C)C (stereo unspecified) | 23.9 |  | 2060 nM [rising, full curve] |

(listing goes on)

| Structure (SMILES) | cell number change [%] | AC50 [1] | AC50 [2] |
| --- | --- | --- | --- |
| Cc1ccc(-n2c(-c3cccs3)nc3ccccc3c2=O)cc1 | -5.74 |  | 517 nM [rising, full curve, poor fit] |
| CC(C)c1ccc(C2NCc3ccccc3-n3cccc32)cc1 (stereo unspecified) | -95.4 | 14600 nM [falling, partial curve] | 20600 nM [falling, partial curve] |
| CN1CCN(c2cc(N3CCCCCC3)c(F)cc2[N+](=O)[O-])CC1 | 61.6 | 8200 nM [rising, partial curve, poor fit] | 29100 nM [rising, partial curve, poor fit] |
| Fc1ccccc1CN1CCN(c2ccc(Cl)cc2)CC1 | -20.9 |  | 18400 nM [falling, single point] |
| COc1ccc2c3c([nH]c2c1)C(C)NCC3 (stereo unspecified) | -5.52 |  | 14600 nM [falling, partial curve] |
| O=C(c1ccc(F)cc1)C(Cc1ccccc1)N1CCCCC1 (stereo unspecified) | 49.4 |  |  |
| COc1ccc(CC2C(=O)NC(=O)N(c3ccccc3)C2=O)c(OC)c1 (stereo unspecified) | 9.93 |  | 731 nM [falling, single point] |
| Cc1ccc(/C=C2\C(=O)NC(=S)N(c3ccc(F)cc3)C2=O)s1 | -33.3 | 29100 nM [falling, single point] | 29100 nM [falling, single point] |
| O=C(O)c1sc2cc(Cl)ccc2c1Cl | 13.4 |  |  |
| C/C(=N\NC(=O)c1ccncc1)c1c(O)n(-c2ccccc2)c(=O)[nH]c1=O | -47.4 | 651 nM [falling, full curve] | 23100 nM [falling, partial curve] |
| Cc1ccc2c(c1)C1CN(C)CCC1N2C(=O)Cn1nnc(-c2ccccc2F)n1 (stereo unspecified) | -22.9 | 164 nM [falling, full curve, poor fit] | 731 nM [falling, full curve] |
| CC(C)OC(=O)c1c(N)n(Cc2ccco2)c2nc3ccccc3nc12 | 2.73 |  |  |
| Cc1nn(Cc2ccccc2Cl)c(C)c1C(=O)OCC(=O)NC1CCCC(C)C1C (stereo unspecified) | -8.41 |  | 18400 nM [rising, single point] |
| Cc1cccc(CN2CCN(c3ccc(Cl)cc3)CC2)c1 | 37.5 | 29100 nM [rising, single point] |  |
| Nc1nnc(P(c2ccccc2)c2ccccc2)s1 | 8.32 |  | 82 nM [rising, full curve, poor fit] |
| CC(Cc1ccccc1)N1Cc2ccccc2C1 (stereo unspecified) | -9.63 |  | 2910 nM [falling, full curve, poor fit] |
| O=P1(Nn2cnnc2)C=C(c2ccccc2)OC(c2ccccc2)=C1 |  | 32600 nM [rising, single point] |  |
| COC(=O)[C@@H]1C[C@H]1[C@@H](NP(=O)(c1ccccc1)c1ccccc1)c1ccccc1 | 17 |  | 206 nM [rising, full curve, poor fit] |
